Drawing on the supplement of paper PMC3682954, this text covers cell viability for 25 compounds.

SMILES strings stand for the structures. Several values for one entry are separate records, joined by “and”; a condition that tells them apart may be missing. Equal values may be shown once. Where a name gives a salt, the structure may show the parent alone. ± gives the standard deviation of the averaged measurements. The list shows a part of the results. Many values rest on one well or one pass, so single values are uncertain.

The experiment has as its system RAW 264.7. Nature of the experiment: cell viability (MTT) relative to vehicle control; higher = more viable cells. The settings on record: stimulus: HMGB1 5 ug/ml, 18 h.
Setting [1] is: compound concentration: 1 ug/ml.

As to `O=C(/C=C/c1ccc(O)cc1)c1ccc(O)cc1O` [Isoliquiritigenin], for the setting “compound concentration: 3 uM”, the cell viability was 93%.

As for `COC1(C2=NCCN2)COc2ccccc2O1` (configuration not stated), the cell viability (compound concentration: 3 uM) turned out to be 123%.

With `OC[C@H]1O[C@@H](n2cnc3c(N[C@H]4CCC[C@@H]4O)ncnc32)[C@H](O)[C@@H]1O`, where the note is “compound concentration: 3 uM”, the cell viability was found to be 108%.

For the compound `NS(=O)(=O)c1cc2c(cc1C(F)(F)F)NCNS2(=O)=O`, the cell viability (compound concentration: 3 uM) stood at 100%.

`NS(=O)(=O)c1cc2c(cc1C(F)(F)F)NCNS2(=O)=O` [Hydroflumethiazide]: the cell viability (compound concentration: 3 uM) turned out to be 96.1%.

As to `CC(C)NC[C@@H](O)COc1ccc(CC(N)=O)cc1` [(R)-(+)-Atenolol], for the setting “compound concentration: 3 uM”, the cell viability turned out to be 127%.

As to `NC(=O)CCCCC1CCSS1` (configuration not stated), the cell viability (compound concentration: 3 uM) was 107%.

In the case of `COc1cc(OC)c2c(c1)OC(c1ccc(O)cc1)CC2=O` (configuration not stated) [4'-Hydroxy-5,7-dimethoxyflavanone], the cell viability under setting [1] is 99.7%.

For the compound `Cc1ccc2nc(CN(CCN(Cc3nc4ccc(C)cc4[nH]3)Cc3nc4ccc(C)cc4[nH]3)Cc3nc4ccc(C)cc4[nH]3)[nH]c2c1`, the cell viability (compound concentration: 3 uM) was determined as 28.2%.

In the case of `CCC1(C)OC(=O)N(C)C1=O` (configuration not stated), the cell viability (compound concentration: 3 uM) stood at 106%.

In the case of `O=C(OOC(=O)c1ccccc1)c1ccccc1`, the cell viability (compound concentration: 3 uM) came to 108%.

For the compound `Nc1cc(=O)[nH]c(N)n1` [2,4-Diamino-6-pyrimidinone], where the note is “compound concentration: 3 uM”, the cell viability came out at 98.7%.

As to `N[C@@H](Cc1c[nH]c2ccccc12)C(=O)O`, the cell viability (compound concentration: 3 uM) turned out to be 100%.

As for `N[C@@H](Cc1c[nH]c2ccccc12)C(=O)O` [L-Tryptophan], the cell viability worked out at 100% under setting [1] and 116% (compound concentration: 3 uM).

Turning to `CC(O)Cn1cnc2c1c(=O)n(C)c(=O)n2C` (configuration not stated), the cell viability (compound concentration: 3 uM) is 109%.

Turning to `CCn1c(=O)[nH]c2cc(Cl)c(Cl)cc21`, the cell viability (compound concentration: 3 uM) worked out at 95.1%.

Take `CC[C@@H]1C(=O)OC[C@@H]1Cc1cncn1C` [(+)-Pilocarpine hydrochloride]: the cell viability (compound concentration: 3 uM) is 111%.

As to `CC[C@@H]1C(=O)OC[C@@H]1Cc1cncn1C` [Pilocarpine], where the note is “compound concentration: 3 uM”, the cell viability turned out to be 109%.

On to `CC[C@@H]1C(=O)OC[C@@H]1Cc1cncn1C`, for which the cell viability (compound concentration: 3 uM) was 112% and 95.4%.

With `CC[C@@H]1C(=O)OC[C@@H]1Cc1cncn1C` [Pilocarpine nitrate], the cell viability (compound concentration: 3 uM) was determined as 114 ± 9.6%.

With `CC[C@@H]1C(=O)OC[C@@H]1Cc1cncn1C` [Pilocarpine hydrochloride], the cell viability under setting [1] was 92.3%.

As for `Cc1cc2c(C(C)C)c(O)c(O)c(C=Nc3ccc4c(c3)CCN4S(C)(=O)=O)c2c(O)c1-c1c(C)cc2c(C(C)C)c(O)c(O)c(C=Nc3ccc4c(c3)CCN4S(C)(=O)=O)c2c1O`, the cell viability under setting [1] was determined as 103%.

On to `CC[C@@]1(O)C[C@H](O[C@H]2C[C@H](N(C)C)[C@H](O[C@H]3C[C@H](O)[C@H](O[C@H]4CCC(=O)[C@H](C)O4)[C@H](C)O3)[C@H](C)O2)c2c(cc3c(c2O)C(=O)c2c(O)cccc2C3=O)[C@H]1C(=O)OC` [Aclarubicin], for which the cell viability (compound concentration: 3 uM) is 6.69%.

Regarding `CN1C(=O)CC[C@H]1c1cccnc1`, the cell viability (compound concentration: 3 uM) was found to be 96.8%.

Consider `CN1C(=O)CC[C@H]1c1cccnc1` [(-)-Cotinine], for which the cell viability was determined as 89.2% under setting [1] and 99 ± 7.2% (compound concentration: 3 uM).

One may read the cell viability as a read-out of living cells in per cent, often relative to untreated cells.
